# Taken from: PubChem BioAssay AID1508588 (Peter MacCallum Cancer Centre, 2020)
# Screen: 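Knock-downs boosting vemurafenib effects on melanoma cell growth or lactate release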 (primary screen)
# Cell system: human WM266.4 melanoma cells (BRAF V600 mutant)
# Reagents: siRNA pool against human genes, 40 nM
# Time to read-out: 96 h from transfection to read-out
# Challenge: vemurafenib 300 nM (about IC25), added 48 h after transfection, for 48 h; comparison arm got DMSO vehicle only
# Detection: 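Cell gain (DAPI nuclei at end minus before drug, mean of two replicates) and medium lactate by absorbance per cell, both as ratio to non-targeting siRNA, also grouped into fold-change classes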
# Scale: cell gain with vemurafenib: higher = more cell gain than with non-targeting siRNA; lactate per cell with vemurafenib: higher = more lactate made per cell
# Hit rule: 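Enhancement is called by pairing each knock-down's vehicle-arm and drug-arm fold-change classes for viability or glycolysis; which class combinations qualify is not given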
# Calls: active = enhances vemurafenib effect; inactive = no enhancement seen
# This is an unselected part of about 18,000 reagents tested. Of all reagents, 790 (4.4%) were called active. 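Calls rest on a combination of fold-change classes in drug and vehicle arms, not all shown here.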 No sequences are given here.
Gene,cell gain with vemurafenib,lactate per cell with vemurafenib,activity call
ZNF232,0.72,0.36,inactive
ADGRL3,1.06,0.42,inactive
NR2C1,0.51,1.09,inactive
CTNNAL1,0.65,0.78,inactive
MED4,0.54,0.71,inactive
GATC,0.55,0.56,inactive
HHLA2,0.45,0.08,active
TDRD7,0.27,0.89,inactive
GTPBP1,0.82,0.82,inactive
ADAMTS12,0.69,0.52,inactive
ANXA11,0.3,0.85,inactive
IVL,0.94,0.62,inactive
GDE1,0.41,1.03,inactive
MT1F,0.64,1.42,inactive
SP140L,0.96,0.38,inactive
ACACA,0.63,0.75,inactive
MGAT4D,0.92,1.55,inactive
SLFN12,0.83,0.76,inactive
CCDC25,0.53,0.62,inactive
RIPK2,0.34,1.07,inactive
KDM1A,0.63,0.32,inactive
NOMO3,0.97,0.5,inactive
NELFE,0.65,0.38,inactive
STARD7-AS1,0.59,0.67,inactive
SOX14,0.2,2.29,inactive
UBE3C,0.63,1.08,inactive
PITPNM3,0.43,1.15,inactive
NDUFAF6,0.96,1,inactive
ANKRD13C,0.62,0.3,active
SLCO1B3,0.85,0.91,inactive
TNFRSF10A,0.94,0.38,inactive

Next part, starting with the last 11 of the part before.
Gene,cell gain with vemurafenib,lactate per cell with vemurafenib,activity call
KDM1A,0.63,0.32,inactive
NOMO3,0.97,0.5,inactive
NELFE,0.65,0.38,inactive
STARD7-AS1,0.59,0.67,inactive
SOX14,0.2,2.29,inactive
UBE3C,0.63,1.08,inactive
PITPNM3,0.43,1.15,inactive
NDUFAF6,0.96,1,inactive
ANKRD13C,0.62,0.3,active
SLCO1B3,0.85,0.91,inactive
TNFRSF10A,0.94,0.38,inactive
POLN,0.31,0.22,inactive
MRI1,0.38,0.88,inactive
DDX60,0.72,0.68,inactive
GGA1,0.44,1.02,inactive
NLRP14,0.81,0.86,inactive
PWWP3B,0.49,1.22,inactive
VPS9D1,1.36,0.8,inactive
BRD1,0.78,0.68,inactive
IFNA10,0.38,0.22,inactive
TRIM13,1.11,0.48,inactive
PEX39,0.92,1.24,inactive
ZNF77,0.3,1.25,inactive
RNPC3,0.53,0.81,inactive
FAM27E5,0.5,1.05,inactive
DNAL1,0.67,1.31,inactive
ERO1A,0.74,1.06,inactive
SLC66A1,0.37,0.45,active
UGCG,0.09,2.14,inactive
OSBPL9,0.68,0.48,active
ZBTB12,1.49,0.68,inactive
CCT3,0.59,1.22,inactive
FGA,0.83,0.78,inactive
PAGE1,1.06,1,inactive
PCDHB6,1,0.87,inactive
CYCS,0.44,1.02,inactive
CADM4,0.65,0.9,inactive
DGAT2,0.22,1.97,inactive
NAXD,0.43,1.23,inactive
ZSWIM8,0.56,1.16,inactive
TAFA5,0.68,0.51,inactive
CDC37P1,1.15,0.84,inactive
TAF15,0.75,0.1,inactive
ROR1,1.06,0.76,inactive
DAOA,0.15,2.28,inactive
CIB3,0.41,0.8,inactive
NRAP,0.6,1.46,inactive
MTF1,0.43,0.56,inactive
ANAPC15,0.56,0.83,inactive
HBQ1,0.4,2.16,inactive
UCMA,0.36,0.97,inactive
ISCA2,0.4,2.02,inactive
C1orf220,0.27,1.56,inactive
CD177,0.66,0.38,inactive
FAM168B,0.38,1.78,inactive
RARS2,0.64,1.37,inactive
TCIM,0.2,0.16,active
CDH20,0.67,0.83,inactive
TNFSF4,0.35,1.03,inactive
H4C3,0.77,0.15,active
S100A7,0.5,1.73,inactive
SH3KBP1,0.94,0.74,inactive
EPB41L5,0.83,0.88,inactive
CCDC66,0.47,1.23,inactive
